In US9428487B2, “Heteroaromatic amides and thioamides as pesticides” (Bayer Intellectual Property GmbH, priority 2008, dated 2016):
Some entries share one result that the patent states for a list of compounds.

test system: green peach aphid (Myzus persicae); assay: Myzus test; format: in vivo; conditions: application rate 500 g/ha, spray on Chinese cabbage leaf slices
Protocol: • Solvent: 78.0 parts by weight of acetone • 1.5 parts by weight of dimethylformamide • Emulsifier: 0.5 part by weight of alkylaryl polyglycol ether
To produce an appropriate active ingredient formulation, 1 part by weight of active ingredient is mixed with the amounts of solvent and emulsifier specified and the concentrate is diluted to the desired concentration with emulsifier-containing water.
Chinese cabbage leaf slices (Brassica pekinensis) infested by all stages of the green peach aphid (Myzus persicae) are sprayed with an active ingredient formulation of the desired concentration.
After the desired time, the efficacy in % is determined 100% means that all aphids have been killed; 0% means that no aphids have been killed.

SMILES | efficacy (aphids killed)
CSC[C@H](C)NC(=O)c1sc(-c2cccnc2)nc1C [Compound 68] | ≥ 70%
Cc1nc(-c2cccnc2)sc1C(=O)NCC(C)F (stereo not drawn) [Compound 76] | ≥ 70%
Cc1nc(-c2cccnc2)sc1C(=O)NC(C#N)C(C)C (stereo not drawn) [Compound 64] | ≥ 70%
